Reference: PMC5805732

Protein sequences, listed by entry. Tags and fused reporters are not part of them.
UniProt P70032: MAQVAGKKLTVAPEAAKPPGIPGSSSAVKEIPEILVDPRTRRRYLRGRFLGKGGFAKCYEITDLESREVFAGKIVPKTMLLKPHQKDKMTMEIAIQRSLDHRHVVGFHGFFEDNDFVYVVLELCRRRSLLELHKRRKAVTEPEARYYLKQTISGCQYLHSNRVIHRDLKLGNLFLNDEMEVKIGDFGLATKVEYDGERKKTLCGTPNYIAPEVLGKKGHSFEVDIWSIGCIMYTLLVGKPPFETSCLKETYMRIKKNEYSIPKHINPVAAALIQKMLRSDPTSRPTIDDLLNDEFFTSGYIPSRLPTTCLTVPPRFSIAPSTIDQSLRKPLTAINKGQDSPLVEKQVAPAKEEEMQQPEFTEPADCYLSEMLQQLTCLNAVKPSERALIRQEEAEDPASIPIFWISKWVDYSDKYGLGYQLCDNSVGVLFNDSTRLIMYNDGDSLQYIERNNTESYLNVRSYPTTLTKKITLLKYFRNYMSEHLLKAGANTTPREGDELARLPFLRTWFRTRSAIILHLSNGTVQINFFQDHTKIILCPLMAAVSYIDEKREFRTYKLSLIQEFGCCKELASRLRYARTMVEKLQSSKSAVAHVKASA
UniProt P50533: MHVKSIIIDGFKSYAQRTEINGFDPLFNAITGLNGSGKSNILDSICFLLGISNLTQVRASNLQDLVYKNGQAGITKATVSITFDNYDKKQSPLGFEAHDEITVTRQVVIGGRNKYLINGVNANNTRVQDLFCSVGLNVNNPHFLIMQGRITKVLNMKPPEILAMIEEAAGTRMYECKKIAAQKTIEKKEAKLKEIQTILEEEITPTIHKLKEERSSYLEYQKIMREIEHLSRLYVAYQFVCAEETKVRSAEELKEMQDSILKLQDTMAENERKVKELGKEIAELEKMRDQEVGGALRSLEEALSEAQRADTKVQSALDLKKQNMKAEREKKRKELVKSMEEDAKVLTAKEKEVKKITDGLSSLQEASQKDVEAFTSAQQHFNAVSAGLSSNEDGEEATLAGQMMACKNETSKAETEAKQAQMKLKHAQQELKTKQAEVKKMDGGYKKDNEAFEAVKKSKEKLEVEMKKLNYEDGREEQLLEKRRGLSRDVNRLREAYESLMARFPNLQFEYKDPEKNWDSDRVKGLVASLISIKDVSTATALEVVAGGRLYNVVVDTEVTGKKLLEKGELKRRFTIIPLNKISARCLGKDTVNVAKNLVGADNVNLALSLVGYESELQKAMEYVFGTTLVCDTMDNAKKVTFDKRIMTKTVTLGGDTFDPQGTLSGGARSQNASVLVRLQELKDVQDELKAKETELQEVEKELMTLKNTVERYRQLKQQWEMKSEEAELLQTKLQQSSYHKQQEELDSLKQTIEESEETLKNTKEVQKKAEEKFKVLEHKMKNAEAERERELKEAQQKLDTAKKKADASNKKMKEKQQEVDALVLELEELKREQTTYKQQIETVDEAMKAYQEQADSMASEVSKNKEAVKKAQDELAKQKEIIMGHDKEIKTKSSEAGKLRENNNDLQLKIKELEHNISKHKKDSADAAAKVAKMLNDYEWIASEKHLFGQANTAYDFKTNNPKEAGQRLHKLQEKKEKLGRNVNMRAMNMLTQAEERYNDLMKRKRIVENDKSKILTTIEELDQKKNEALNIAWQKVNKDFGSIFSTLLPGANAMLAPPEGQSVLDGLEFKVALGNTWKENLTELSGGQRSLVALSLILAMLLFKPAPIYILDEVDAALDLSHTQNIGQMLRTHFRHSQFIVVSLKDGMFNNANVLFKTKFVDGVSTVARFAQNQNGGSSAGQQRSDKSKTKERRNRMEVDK
UniProt Q6NTJ3: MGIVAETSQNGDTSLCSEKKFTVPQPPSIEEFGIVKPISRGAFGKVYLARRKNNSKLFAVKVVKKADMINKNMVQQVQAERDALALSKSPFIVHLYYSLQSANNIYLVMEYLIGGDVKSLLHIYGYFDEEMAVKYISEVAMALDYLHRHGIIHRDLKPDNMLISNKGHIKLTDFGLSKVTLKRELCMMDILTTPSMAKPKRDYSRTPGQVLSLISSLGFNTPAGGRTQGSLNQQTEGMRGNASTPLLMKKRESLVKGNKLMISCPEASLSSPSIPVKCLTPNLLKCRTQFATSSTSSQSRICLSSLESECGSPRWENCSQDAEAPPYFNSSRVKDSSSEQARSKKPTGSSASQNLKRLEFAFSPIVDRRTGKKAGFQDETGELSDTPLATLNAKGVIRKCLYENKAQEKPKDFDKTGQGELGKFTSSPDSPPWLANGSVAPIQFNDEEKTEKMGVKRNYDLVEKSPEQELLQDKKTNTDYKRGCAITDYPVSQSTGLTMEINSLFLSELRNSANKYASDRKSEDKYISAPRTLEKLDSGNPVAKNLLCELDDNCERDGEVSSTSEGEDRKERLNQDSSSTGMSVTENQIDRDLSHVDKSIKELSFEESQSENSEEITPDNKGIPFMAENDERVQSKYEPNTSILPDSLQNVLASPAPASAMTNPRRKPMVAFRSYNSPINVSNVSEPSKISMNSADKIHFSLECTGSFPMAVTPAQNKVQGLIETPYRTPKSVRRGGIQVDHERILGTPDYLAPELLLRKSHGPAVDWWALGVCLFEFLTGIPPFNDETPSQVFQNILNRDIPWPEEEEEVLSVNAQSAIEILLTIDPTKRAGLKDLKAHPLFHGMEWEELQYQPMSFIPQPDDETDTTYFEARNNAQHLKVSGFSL

T1: MBP-B55β (Xenopus) (UniProt A1L3L9)
T1 sequence: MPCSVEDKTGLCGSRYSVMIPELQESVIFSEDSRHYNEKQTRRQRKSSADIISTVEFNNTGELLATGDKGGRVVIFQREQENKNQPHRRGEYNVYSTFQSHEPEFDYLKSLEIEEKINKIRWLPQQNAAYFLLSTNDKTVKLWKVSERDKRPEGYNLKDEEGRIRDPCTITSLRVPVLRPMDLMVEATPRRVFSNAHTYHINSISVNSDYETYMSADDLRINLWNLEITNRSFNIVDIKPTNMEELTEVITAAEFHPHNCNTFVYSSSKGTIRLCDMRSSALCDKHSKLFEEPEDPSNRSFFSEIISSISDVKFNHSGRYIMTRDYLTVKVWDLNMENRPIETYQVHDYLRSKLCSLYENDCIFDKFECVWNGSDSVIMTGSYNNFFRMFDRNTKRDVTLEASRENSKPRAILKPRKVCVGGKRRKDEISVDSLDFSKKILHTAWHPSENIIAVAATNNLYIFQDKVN

B1: DNA replication protein Mcm2 (protein, UniProt P55861 1-886)
chain: MADSSESFNIATSPRAGSRRDALTSSPGRDLPPFEDESEGMFGDGVVPEEEEDGEELIGDAMERDYRPISELDRYEVEGLDDEEDVEDLTASQREAAEQSMRMRDREMGRELGRMRRGLLYDSDEEEEDRPARKRRMAERAAEGAPEEDEEMIESIENLEDMKGHTVREWVSMAATRLEIYHRFKNFLRTHVDEHGHNVFKEKISDMCKENKESLPVNYEDLAAREHVLAYFLPEAPAEMLKIFDEAAKEVVLVMYPKYDRIAREIHVRISHLPLVEELRSLRQLHLNQLIRTSGVVTCCTGVLPQLSMVKYNCNKCNFILGPFFQSQNQEVRPGSCPECQSFGPFEINMEETVYQNYQRITIQESPGKVAAGRLPRSKDAILLADLVDSCKPGDEIELTGIYHNNYDGSLNTANGFPVFATVILANHITKKDDKVAVGELTDEDVKAIVALSKDERIGERIFASIAPSIYGHEDIKRGLALALFGGEAKNPGGKHKVRGDINVLLCGDPGTAKSQFLKYVEKVASRAVFTTGQGASAVGLTAYVQRHPVTKEWTLEAGALVLADRGVCLIDEFDKMNDQDRTSIHEAMEQQSISISKAGIVTSLQARCTVIAASNPIGGRYDPSLTFSENVDLTEPIVSRFDILCVVRDTVDPVQDEMLARFVVSSHIKHHPSSKDIANGDAAEFALPNTFGVEALPQEVLKKYIMYAKEKIRPKLNQMDQDKVAKMYSDLRKESMATGSIPITVRHIESMIRMAEAHARMHLRDYVVEDDVNMAIRVMLESFIDTQKFSVMRSMRKTFARYLAFRRDNNELLLFVLKQLIAEQVTYQRNRYGAQQDTIEVPEKDLVDKARQINIHNLSAFYDSDLFKMNKFTHDVKKKLIIQQF

The molecules below were run against T1, MBP-B55β (Xenopus) (assay: pull-down; about 10 μg MBP-B55 on amylose beads (20 μl) incubated in interphase Xenopus egg extracts (40 μl), 30 min, room temperature; immunoblotting; control: amylose beads not conjugated with proteins; only the target purified).

| binding | Molecule |
| --- | --- |
| binds | chromosomal passenger complex (CPC) component Incenp (Xenopus (endogenous in egg extracts)) |
| binds | ubiquitin E3 ligase Ube3a (Xenopus (endogenous in egg extracts)) (enzyme) |
| binds | catalytic subunit of PP2A (Xenopus (endogenous in egg extracts)) (enzyme) |

Each molecule was assayed against MBP-B55α (Xenopus) (UniProt Q6IRD3) in the same assay as above.

| binding | Molecule |
| --- | --- |
| binds | mitotic kinase Plk1 (from UniProt P70032 1-598) (enzyme) |
| no binding | Condensin subunit Smc2 (from UniProt P50533 1-1203) |
| binds | mitotic kinase Mastl (from UniProt Q6NTJ3 1-887) (enzyme) |
| binds | B1 |

Results are given in words; binding and its absence hold for the method and conditions named. In cells and extracts the contact can be indirect. Binding can be weak; no strength is given. For some of these results: Sequences can lack the tags named with a protein.
